Measured values published in patent US20200291121A1.
Results are given in words; binding and its absence hold for the method and conditions named. Some binding calls cover weakened binding; strength is not graded here.

Chains of the proteins cited; added tags and fusions are not shown. Lines headed by an entry give the natural chain unless they say otherwise; changes in a name come on top. A line that says so, or that is headed by a name, gives the form on record, which may keep a tag or linker.
cynomolgus monkey IL-5Rα, recombinant extracellular domain (C3VEW9, form named): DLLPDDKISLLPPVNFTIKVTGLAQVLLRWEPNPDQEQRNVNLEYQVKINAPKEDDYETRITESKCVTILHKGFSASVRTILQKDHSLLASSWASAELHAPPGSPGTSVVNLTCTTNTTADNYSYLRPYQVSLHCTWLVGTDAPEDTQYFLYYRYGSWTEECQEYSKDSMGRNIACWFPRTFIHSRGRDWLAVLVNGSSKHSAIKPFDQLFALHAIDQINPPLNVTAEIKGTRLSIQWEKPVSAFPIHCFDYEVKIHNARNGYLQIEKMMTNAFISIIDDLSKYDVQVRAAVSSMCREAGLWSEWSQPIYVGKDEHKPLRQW

Target: cynomolgus monkey IL-5Rα, recombinant extracellular domain (cynomolgus monkey) (UniProt C3VEW9)
Assay: BLI (Octet RED 384), antibody immobilised on AR2G sensors

B1: BCD133-03-021 (antibody, human IgG1, kappa, V domains shown)
VH: QVQLQESGGGLVQPGGSLRLSCAASGFTFSNYAMSWVRQAPGKGLEWVSAINSGGKSTNYADSVKGRFTISRDNAKNTLYLQMNSLRAEDTAVYYCADYATNYGVPYFGSWGQGTMVTVSS
VL: QSVLTQPPSVSAAPGQRVTISCSGSRSNIGSGYDVHWYQQLPGTAPKLLIYDDNNRPSGVPDRFSGSKSGTSASLAITGLQAEDEADYYCQSYDSSLSGHVVFGGGTKLTVLR
- binding: binds
